In paper doi:10.1101/2023.09.28.559965:
No constants are given. Whether binding was seen depends on the method and setting. In cells and extracts the contact can be indirect.

Molecular target: HER2 with eGFP tag, doxycycline-induced in MCF10A-Teti-HER2_GFP cells, P04626
Experiment: co-IP
Settings: remark: other sources report otherwise

B1: β-catenin, P35222 1-781 (protein)
chain: MATQADLMELDMAMEPDRKAAVSHWQQQSYLDSGIHSGATTTAPSLSGKGNPEEEDVDTSQVLYEWEQGFSQSFTQEQVADIDGQYAMTRAQRVRAAMFPETLDEGMQIPSTQFDAAHPTNVQRLAEPSQMLKHAVVNLINYQDDAELATRAIPELTKLLNDEDQVVVNKAAVMVHQLSKKEASRHAIMRSPQMVSAIVRTMQNTNDVETARCTAGTLHNLSHHREGLLAIFKSGGIPALVKMLGSPVDSVLFYAITTLHNLLLHQEGAKMAVRLAGGLQKMVALLNKTNVKFLAITTDCLQILAYGNQESKLIILASGGPQALVNIMRTYTYEKLLWTTSRVLKVLSVCSSNKPAIVEAGGMQALGLHLTDPSQRLVQNCLWTLRNLSDAATKQEGMEGLLGTLVQLLGSDDINVVTCAAGILSNLTCNNYKNKMMVCQVGGIEALVRTVLRAGDREDITEPAICALRHLTSRHQEAEMAQNAVRLHYGLPVVVKLLHPPSHWPLIKATVGLIRNLALCPANHAPLREQGAIPRLVQLLVRAHQDTQRRTSMGGTQQQFVEGVRMEEIVEGCTGALHILARDVHNRIVIRGLNTIPLFVQLLYSPIENIQRVAAGVLCELAQDKEAAEAIEAEGATAPLTELLHSRNEGVATYAAAVLFRMSEDKPQDYKKRLSVELTSSLFRTEPMAWNETADLGLDIGAQGEPLGYRQDDPSYRSFHSGGYGQDALGMDPMMEHEMGGHHPGADYPVDGLPDLGHAQDLMDGLPPGDSNQLAWFDTDL
binding: no binding
